The list shows a part of the results.
Tests used:
Assay in all cases: log2 fold change, soluble protein after heating vs DMSO (PISA); higher = thermal stabilisation; K562 lysate, 10 uM; active = over 0.2 and 3.5 SD of the protein, either way, in both replicates (recomputed)
[1] = compound: NCC(=O)Nc1ccc(-n2nc(C(F)(F)F)cc2-c2ccc3c(ccc4ccccc43)c2)cc1
Method in brief: (§1)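 Pellets of K562 cells were dounce-homogenised in PBS pH 7.4 with 1 mM MgCl2, and the crude extract was held at 1 mg/mL protein for a 30 min treatment with 10 μM compound. Aliquots were heated for 3 min over 48°C-58°C and pooled before NP-40 was added to 0.5% at 4°C. The supernatant from 21,000xg for 90 min was quantified by TMTpro 16plex LC-MS/MS with channel sums equalised. Values are reported from duplicates as log-two fold change in thermal stability relative to solvent controls.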

Protein sequences, listed by entry. Tags and fused reporters are not part of them. Lines headed by an entry give the natural chain unless they say otherwise; changes in a name come on top.
UniProt Q9BUP0: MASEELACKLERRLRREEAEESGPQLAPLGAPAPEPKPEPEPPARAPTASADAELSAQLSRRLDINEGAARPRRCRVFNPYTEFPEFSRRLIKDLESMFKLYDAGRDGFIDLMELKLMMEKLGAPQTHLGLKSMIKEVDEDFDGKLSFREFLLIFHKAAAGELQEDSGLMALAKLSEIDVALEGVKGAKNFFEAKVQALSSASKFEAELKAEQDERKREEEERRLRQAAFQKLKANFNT
UniProt Q8TEA8: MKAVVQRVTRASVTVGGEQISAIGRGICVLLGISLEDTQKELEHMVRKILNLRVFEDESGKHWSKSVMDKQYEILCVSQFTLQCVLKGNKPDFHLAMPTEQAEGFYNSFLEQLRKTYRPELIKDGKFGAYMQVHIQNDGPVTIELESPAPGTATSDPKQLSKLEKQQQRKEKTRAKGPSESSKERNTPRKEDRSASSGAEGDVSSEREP
UniProt P63167, whole entry, looked up: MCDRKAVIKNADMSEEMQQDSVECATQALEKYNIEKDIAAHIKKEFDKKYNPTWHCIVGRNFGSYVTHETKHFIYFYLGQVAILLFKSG
UniProt Q99956: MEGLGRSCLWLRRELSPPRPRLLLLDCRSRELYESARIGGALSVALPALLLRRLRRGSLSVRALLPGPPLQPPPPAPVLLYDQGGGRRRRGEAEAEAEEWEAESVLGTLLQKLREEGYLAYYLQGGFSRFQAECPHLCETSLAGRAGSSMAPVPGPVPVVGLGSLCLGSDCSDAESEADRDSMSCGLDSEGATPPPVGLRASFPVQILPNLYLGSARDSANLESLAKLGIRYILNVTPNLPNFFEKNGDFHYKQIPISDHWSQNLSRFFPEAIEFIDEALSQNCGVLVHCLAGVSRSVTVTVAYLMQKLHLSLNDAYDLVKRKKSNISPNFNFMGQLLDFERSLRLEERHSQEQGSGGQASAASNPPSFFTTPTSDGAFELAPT
UniProt Q6P2E9: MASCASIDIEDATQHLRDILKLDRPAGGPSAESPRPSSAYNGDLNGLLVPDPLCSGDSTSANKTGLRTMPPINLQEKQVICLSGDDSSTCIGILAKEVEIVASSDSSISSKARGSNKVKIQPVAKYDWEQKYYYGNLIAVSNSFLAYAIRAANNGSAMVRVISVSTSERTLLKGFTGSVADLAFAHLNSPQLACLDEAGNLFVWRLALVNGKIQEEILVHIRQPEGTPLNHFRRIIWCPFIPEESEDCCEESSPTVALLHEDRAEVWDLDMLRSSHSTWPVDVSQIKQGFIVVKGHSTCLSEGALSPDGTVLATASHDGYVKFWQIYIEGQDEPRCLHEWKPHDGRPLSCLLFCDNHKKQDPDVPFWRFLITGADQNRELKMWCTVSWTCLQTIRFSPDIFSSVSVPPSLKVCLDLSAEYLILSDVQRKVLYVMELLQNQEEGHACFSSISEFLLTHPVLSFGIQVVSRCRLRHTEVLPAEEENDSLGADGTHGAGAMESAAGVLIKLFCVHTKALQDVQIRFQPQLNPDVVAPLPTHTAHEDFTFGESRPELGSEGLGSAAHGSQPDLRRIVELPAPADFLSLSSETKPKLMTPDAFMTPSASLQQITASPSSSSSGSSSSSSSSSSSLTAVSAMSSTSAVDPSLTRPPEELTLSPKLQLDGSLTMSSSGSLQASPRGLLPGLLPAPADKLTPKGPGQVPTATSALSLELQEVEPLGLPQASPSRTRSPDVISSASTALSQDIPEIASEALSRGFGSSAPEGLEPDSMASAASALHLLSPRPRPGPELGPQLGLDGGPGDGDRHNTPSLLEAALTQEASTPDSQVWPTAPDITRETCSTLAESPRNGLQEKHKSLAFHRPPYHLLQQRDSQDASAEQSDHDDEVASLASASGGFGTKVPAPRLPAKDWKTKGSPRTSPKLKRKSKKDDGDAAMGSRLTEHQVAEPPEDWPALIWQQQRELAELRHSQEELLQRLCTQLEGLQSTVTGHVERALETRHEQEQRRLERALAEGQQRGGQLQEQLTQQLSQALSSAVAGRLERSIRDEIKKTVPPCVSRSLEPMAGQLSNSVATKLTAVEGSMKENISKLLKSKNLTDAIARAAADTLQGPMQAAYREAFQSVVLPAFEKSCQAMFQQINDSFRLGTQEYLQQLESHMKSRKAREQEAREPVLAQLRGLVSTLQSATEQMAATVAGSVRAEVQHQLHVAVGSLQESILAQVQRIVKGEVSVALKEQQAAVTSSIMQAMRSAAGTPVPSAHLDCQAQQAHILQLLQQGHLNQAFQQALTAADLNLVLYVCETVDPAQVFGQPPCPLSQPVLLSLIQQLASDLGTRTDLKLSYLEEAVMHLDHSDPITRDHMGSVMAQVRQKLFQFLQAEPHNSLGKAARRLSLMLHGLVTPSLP
UniProt Q8N6R0: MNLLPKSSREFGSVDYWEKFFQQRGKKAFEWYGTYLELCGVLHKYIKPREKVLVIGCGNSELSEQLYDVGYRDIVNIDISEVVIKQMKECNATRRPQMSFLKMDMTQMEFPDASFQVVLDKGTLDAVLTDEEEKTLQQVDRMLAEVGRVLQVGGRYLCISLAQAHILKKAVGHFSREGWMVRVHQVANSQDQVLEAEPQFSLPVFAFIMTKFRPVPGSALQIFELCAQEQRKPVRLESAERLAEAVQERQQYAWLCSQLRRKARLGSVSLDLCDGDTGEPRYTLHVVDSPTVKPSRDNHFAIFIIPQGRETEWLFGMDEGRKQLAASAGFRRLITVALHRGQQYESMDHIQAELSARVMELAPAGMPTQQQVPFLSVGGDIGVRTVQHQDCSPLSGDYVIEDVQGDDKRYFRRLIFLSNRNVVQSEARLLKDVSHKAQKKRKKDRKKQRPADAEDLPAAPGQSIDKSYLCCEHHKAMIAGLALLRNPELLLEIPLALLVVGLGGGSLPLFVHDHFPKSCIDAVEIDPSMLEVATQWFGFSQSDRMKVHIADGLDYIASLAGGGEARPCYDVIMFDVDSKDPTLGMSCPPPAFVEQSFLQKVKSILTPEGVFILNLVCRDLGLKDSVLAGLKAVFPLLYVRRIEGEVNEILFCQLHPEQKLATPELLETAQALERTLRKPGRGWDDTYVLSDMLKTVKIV
UniProt P55039: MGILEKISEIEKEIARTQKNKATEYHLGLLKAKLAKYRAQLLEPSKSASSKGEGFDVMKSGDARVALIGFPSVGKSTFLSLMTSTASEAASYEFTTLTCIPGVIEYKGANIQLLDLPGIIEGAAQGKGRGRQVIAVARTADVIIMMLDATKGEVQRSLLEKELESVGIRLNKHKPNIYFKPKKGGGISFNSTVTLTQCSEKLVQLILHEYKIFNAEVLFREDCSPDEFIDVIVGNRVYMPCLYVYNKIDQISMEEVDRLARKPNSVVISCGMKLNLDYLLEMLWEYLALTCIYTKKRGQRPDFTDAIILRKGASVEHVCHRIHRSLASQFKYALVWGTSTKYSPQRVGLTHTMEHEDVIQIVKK
UniProt P29692: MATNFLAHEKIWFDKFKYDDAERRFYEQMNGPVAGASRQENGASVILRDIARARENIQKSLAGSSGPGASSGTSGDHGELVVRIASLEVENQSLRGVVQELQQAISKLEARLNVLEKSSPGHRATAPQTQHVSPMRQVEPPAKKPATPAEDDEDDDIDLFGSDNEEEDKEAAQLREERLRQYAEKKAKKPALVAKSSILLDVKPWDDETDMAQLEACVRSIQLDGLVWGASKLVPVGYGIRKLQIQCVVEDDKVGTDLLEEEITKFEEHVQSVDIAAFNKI
UniProt O00716: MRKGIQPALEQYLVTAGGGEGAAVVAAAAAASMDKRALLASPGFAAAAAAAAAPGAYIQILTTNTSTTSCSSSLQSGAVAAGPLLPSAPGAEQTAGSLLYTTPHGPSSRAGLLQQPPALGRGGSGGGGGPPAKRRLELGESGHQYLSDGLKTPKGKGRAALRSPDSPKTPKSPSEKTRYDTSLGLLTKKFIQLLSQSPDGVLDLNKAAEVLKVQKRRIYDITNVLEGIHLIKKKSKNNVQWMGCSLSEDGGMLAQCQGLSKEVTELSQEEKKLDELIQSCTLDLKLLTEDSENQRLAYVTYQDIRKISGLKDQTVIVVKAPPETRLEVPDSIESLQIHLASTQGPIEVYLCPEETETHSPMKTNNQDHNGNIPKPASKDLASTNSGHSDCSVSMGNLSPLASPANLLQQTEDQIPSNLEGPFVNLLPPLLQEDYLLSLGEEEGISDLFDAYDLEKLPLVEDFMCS
UniProt Q92997: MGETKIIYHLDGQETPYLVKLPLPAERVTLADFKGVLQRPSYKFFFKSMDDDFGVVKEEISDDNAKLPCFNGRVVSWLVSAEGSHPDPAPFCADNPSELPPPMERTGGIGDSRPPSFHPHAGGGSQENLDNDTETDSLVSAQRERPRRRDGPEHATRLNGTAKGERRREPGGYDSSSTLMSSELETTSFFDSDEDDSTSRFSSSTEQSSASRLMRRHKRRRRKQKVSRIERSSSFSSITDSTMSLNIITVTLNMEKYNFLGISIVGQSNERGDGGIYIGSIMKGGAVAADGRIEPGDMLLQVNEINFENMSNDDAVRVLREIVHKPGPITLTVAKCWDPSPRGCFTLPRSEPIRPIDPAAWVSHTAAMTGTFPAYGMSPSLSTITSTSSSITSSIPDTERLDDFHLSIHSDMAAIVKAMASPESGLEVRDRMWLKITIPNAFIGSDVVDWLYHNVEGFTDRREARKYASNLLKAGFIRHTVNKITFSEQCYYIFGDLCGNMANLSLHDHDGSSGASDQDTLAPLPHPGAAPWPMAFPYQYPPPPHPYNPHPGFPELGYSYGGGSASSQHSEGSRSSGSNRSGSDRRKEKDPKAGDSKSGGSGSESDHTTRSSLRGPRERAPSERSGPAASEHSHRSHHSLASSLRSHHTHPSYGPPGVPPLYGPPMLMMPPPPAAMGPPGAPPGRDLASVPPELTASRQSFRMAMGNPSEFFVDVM
UniProt O60869: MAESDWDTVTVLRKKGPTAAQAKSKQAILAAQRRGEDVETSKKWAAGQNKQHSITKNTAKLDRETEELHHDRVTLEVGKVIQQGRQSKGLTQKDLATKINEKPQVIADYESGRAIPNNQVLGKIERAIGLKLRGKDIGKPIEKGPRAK
UniProt P0DPD7: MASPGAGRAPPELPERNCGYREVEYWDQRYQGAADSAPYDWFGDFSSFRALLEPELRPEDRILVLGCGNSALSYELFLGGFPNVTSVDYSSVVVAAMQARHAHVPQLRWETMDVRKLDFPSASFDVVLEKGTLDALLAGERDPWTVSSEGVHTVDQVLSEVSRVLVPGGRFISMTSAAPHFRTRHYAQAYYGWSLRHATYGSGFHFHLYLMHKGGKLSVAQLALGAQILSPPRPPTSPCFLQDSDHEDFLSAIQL
UniProt O14641: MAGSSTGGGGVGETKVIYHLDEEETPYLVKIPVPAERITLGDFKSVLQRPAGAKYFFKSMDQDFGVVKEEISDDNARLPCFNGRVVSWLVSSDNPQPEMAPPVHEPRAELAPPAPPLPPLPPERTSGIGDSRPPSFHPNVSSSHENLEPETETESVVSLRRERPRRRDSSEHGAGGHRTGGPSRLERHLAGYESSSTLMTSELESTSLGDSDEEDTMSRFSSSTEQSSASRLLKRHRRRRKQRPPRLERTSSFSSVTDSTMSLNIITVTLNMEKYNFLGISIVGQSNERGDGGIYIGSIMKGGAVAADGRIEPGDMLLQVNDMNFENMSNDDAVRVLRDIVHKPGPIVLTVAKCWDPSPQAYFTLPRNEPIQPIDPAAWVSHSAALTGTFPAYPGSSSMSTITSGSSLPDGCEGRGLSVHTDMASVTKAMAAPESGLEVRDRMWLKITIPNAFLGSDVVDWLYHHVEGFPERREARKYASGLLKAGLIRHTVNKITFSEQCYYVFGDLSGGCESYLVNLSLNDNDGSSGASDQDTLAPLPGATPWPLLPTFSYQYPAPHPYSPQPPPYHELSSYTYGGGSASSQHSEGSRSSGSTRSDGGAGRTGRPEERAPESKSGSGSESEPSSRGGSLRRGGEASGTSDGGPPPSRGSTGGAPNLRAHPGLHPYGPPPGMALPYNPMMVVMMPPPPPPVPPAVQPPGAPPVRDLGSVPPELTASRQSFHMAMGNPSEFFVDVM
UniProt Q9BTV6: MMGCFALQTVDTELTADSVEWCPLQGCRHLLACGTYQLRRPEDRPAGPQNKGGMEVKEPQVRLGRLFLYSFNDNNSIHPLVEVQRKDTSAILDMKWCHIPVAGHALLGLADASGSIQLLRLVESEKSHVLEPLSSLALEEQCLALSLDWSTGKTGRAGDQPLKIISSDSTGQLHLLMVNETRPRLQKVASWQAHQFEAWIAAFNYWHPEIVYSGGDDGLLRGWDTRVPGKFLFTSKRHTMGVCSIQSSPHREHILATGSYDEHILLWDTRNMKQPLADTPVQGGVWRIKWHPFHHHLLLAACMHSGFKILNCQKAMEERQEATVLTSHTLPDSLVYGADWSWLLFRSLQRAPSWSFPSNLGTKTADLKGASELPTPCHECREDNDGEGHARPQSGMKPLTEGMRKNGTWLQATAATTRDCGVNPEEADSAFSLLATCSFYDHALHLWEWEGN
UniProt P41567, whole entry, looked up: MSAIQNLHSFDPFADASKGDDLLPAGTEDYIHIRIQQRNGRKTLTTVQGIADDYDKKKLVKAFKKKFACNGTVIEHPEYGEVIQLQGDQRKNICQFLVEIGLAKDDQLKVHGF

vorinostat = compound: O=C(CCCCCCC(=O)Nc1ccccc1)NO [vorinostat]
Method in brief: as §1

silmitasertib = compound: O=C(O)c1ccc2c(c1)nc(Nc1cccc(Cl)c1)c1ccncc12 [silmitasertib]
Method in brief: as §1

[2] = compound: O=C1NC(=O)C(c2cnc3ccccn23)=C1c1cn2c3c(cc(F)cc13)CN(C(=O)N1CCCCC1)CC2
Method in brief: as §1

entospletinib = compound: c1cn2cc(-c3ccc4cn[nH]c4c3)nc(Nc3ccc(N4CCOCC4)cc3)c2n1 [entospletinib]
Method in brief: as §1

Target	log2 fold change [1]	log2 fold change (vorinostat)	log2 fold change (silmitasertib)	log2 fold change [2]	log2 fold change (entospletinib)
E2F4 (UniProt Q16254)	inactive: 0.022	inactive: -0.17	inactive: 0.016	inactive: 0.019	inactive: -0.027
EEA1 (UniProt Q15075)	inactive: -0.004	inactive: 0.091	inactive: -0.018	inactive: 0	inactive: -0.012
EFHD1 (UniProt Q9BUP0)	inactive: 0.002	inactive: 0.143	inactive: -0.014	inactive: 0.031	inactive: -0.002
DPY30 (UniProt Q9C005)	inactive: 0.111	inactive: 0.133	inactive: -0.046	inactive: 0.071	inactive: -0.068
DPH6 (UniProt Q7L8W6)	inactive: -0.029	inactive: -0.17	inactive: 0	inactive: -0.035	inactive: -0.011
DUS2 (UniProt Q9NX74)	inactive: -0.01	inactive: -0.014	active: 0.555	inactive: -0.037	inactive: -0.042
DRAP1 isoform 2 (UniProt Q14919)	inactive: 0.018	inactive: 0.046	inactive: -0.006	inactive: -0.022	inactive: 0.01
DTD1 (UniProt Q8TEA8)	inactive: -0.055	inactive: 0.059	inactive: 0	inactive: -0.08	inactive: 0.011
EFCAB14 (UniProt O75071)	inactive: 0.039	active: 0.327	inactive: -0.054	inactive: 0.029	inactive: 0.013
DYNLL1 (UniProt P63167)	inactive: -0.057	inactive: -0.089	inactive: -0.017	inactive: 0.025	inactive: 0.022
DUSP9 (UniProt Q99956)	inactive: -0.046	inactive: -0.328	inactive: 0.045	inactive: -0.019	inactive: -0.059
ECT2 (UniProt Q9H8V3)	inactive: 0.067	inactive: -0.06	inactive: 0.048	inactive: -0.032	inactive: -0.044
DYNLL2 (UniProt Q96FJ2)	inactive: -0.062	inactive: 0.075	inactive: 0.072	inactive: 0.037	inactive: -0.028
EDC4 (UniProt Q6P2E9)	inactive: 0.045	active: -0.453	inactive: 0.011	inactive: 0.004	inactive: 0.02
EEF1AKNMT (UniProt Q8N6R0)	inactive: -0.004	active: -0.414	inactive: 0.076	inactive: -0.005	inactive: 0.026
EEF2K (UniProt O00418)	inactive: 0.01	inactive: -0.159	inactive: 0.01	inactive: -0.006	inactive: 0.009
DRG2 (UniProt P55039)	inactive: 0.004	inactive: -0.072	inactive: 0.023	inactive: 0.029	inactive: 0.035
ECPAS (UniProt Q5VYK3)	inactive: 0.023	inactive: -0.106	inactive: 0.025	inactive: 0.007	inactive: 0.003
DPYSL2 (UniProt Q16555)	inactive: -0.009	inactive: 0.045	inactive: -0.052	inactive: 0.035	inactive: 0.078
DYNC1LI1 (UniProt Q9Y6G9)	inactive: 0.006	inactive: -0.025	inactive: 0.014	inactive: 0	inactive: 0.017
DYSF isoform 13 (UniProt O75923)	inactive: 0.069	inactive: -0.013	inactive: 0.233	inactive: 0.018	inactive: -0.12
DUS1L (UniProt Q6P1R4)	inactive: 0.03	inactive: -0.132	inactive: -0.036	inactive: 0.061	inactive: 0.085
EEF1AKMT2, A0A494BZY7	inactive: 0.088	inactive: 0.035	inactive: 0.004	inactive: 0.045	inactive: 0.013
EEF1D isoform 2 (UniProt P29692)	inactive: 0.039	inactive: 0.11	inactive: -0.01	inactive: -0.013	inactive: -0.007
EFTUD2 (UniProt Q15029)	inactive: 0.015	inactive: 0.097	inactive: -0.021	inactive: -0.015	inactive: 0.009
E2F3 (UniProt O00716)	inactive: -0.076	inactive: 0.099	inactive: 0.004	inactive: 0.015	inactive: 0.062
ECI1 (UniProt P42126)	inactive: -0.039	inactive: 0.123	inactive: -0.002	inactive: -0.013	inactive: 0

Target	log2 fold change [1]	log2 fold change (vorinostat)	log2 fold change (silmitasertib)	log2 fold change [2]	log2 fold change (entospletinib)
DYM (UniProt Q7RTS9)	inactive: -0.039	inactive: 0.029	inactive: 0.061	inactive: 0.062	inactive: 0.087
DPH5 isoform 5 (UniProt Q9H2P9)	inactive: -0.046	inactive: -0.06	inactive: -0.015	inactive: 0.077	inactive: -0.011
EDEM1 (UniProt Q92611)	inactive: 0.004	inactive: 0.041	inactive: -0.016	inactive: 0.018	inactive: 0.063
DPP8 (UniProt Q6V1X1)	inactive: -0.131	inactive: -0.012	inactive: 0.027	inactive: -0.061	inactive: 0.005
DVL3 (UniProt Q92997)	inactive: 0.359	inactive: -0.119	inactive: -0.062	inactive: 0.075	inactive: -0.049
DPF1 isoform 2 (UniProt Q92782)	inactive: -0.077	inactive: -0.055	inactive: 0.127	inactive: 0.036	inactive: -0.027
EI24 (UniProt O14681)	inactive: -0.118	inactive: 0.02	inactive: 0.07	inactive: 0.06	inactive: 0.023
ECD isoform 3 (UniProt O95905)	inactive: 0.025	inactive: -0.068	inactive: -0.032	inactive: -0.013	inactive: -0.009
DSCC1 (UniProt Q9BVC3)	inactive: -0.058	inactive: -0.057	inactive: 0.023	inactive: -0.089	inactive: 0.019
ECHDC1 (UniProt Q9NTX5)	inactive: -0.003	inactive: -0.02	inactive: 0.006	inactive: 0.004	inactive: -0.063
EEF1A2 (UniProt Q05639)	inactive: 0.023	inactive: -0.201	inactive: -0.003	inactive: 0.003	inactive: 0.026
EDF1 (UniProt O60869)	inactive: 0.021	inactive: 0.134	inactive: -0.035	inactive: 0.048	inactive: 0.011
EED, A0A5F9ZI63	inactive: -0.022	active: -0.227	inactive: 0.043	inactive: -0.018	inactive: 0.009
EEF1AKMT4 (UniProt P0DPD7)	inactive: 0.053	active: -0.312	inactive: 0.029	inactive: 0.035	inactive: 0.012
DST (UniProt Q03001)	inactive: 0.262	inactive: -0.035	inactive: -0.02	inactive: 0.01	inactive: -0.03
DVL2 (UniProt O14641)	inactive: -0.056	active: 0.33	inactive: 0.049	inactive: 0.078	inactive: -0.015
DUT (UniProt P33316)	inactive: 0.025	inactive: 0.071	inactive: -0.018	inactive: 0.002	inactive: 0.003
DSG2 (UniProt Q14126)	inactive: 0.016	inactive: 0.119	inactive: 0.022	inactive: 0.033	inactive: -0.013
EFHD2 (UniProt Q96C19)	inactive: -0.015	inactive: 0.114	inactive: -0.004	inactive: 0.009	inactive: 0.018
DPH7 (UniProt Q9BTV6)	inactive: 0.036	inactive: 0.059	inactive: 0.027	inactive: -0.029	inactive: 0.003
DSN1 (UniProt Q9H410)	inactive: -0.028	active: -0.358	inactive: -0.007	inactive: 0.008	inactive: -0.017
DRG1 (UniProt Q9Y295)	inactive: -0.009	inactive: 0.068	inactive: -0.025	inactive: -0.015	inactive: 0.003
EIF1 (UniProt P41567)	inactive: -0.032	inactive: 0.12	inactive: -0.024	inactive: 0.036	inactive: 0.028
EHD1 (UniProt Q9H4M9)	inactive: 0.011	inactive: 0.018	inactive: -0.017	inactive: 0.019	inactive: -0.019
DYNC1H1 (UniProt Q14204)	inactive: 0.003	inactive: -0.083	inactive: 0.022	inactive: 0.004	inactive: 0.01
EHD2 (UniProt Q9NZN4)	inactive: 0.005	active: -0.282	inactive: 0.073	inactive: 0.018	inactive: 0.032
DPP7 (UniProt Q9UHL4)	inactive: -0.003	inactive: 0.102	inactive: -0.032	inactive: 0.018	inactive: -0.016

2 entries from above, comma-delimited:
Target,log2 fold change [1],log2 fold change (vorinostat),log2 fold change (silmitasertib),log2 fold change [2],log2 fold change (entospletinib)
EDF1 (UniProt O60869),inactive: 0.021,inactive: 0.134,inactive: -0.035,inactive: 0.048,inactive: 0.011
"EED, A0A5F9ZI63",inactive: -0.022,active: -0.227,inactive: 0.043,inactive: -0.018,inactive: 0.009

Reference: the supplement of paper PMC10849652
